PubChem BioAssay AID1259327 | Drosophila RNAi Screening Center | 2017

- Aim: 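Baseline ATP after transmembrane-protein gene knock-down with water vehicle only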
- System: Drosophila S2R+ cells
- Knock-down reagent: long dsRNA against Drosophila genes
- Duration: 5 days (water added on day 4, read one day later)
- Conditions: water added as vehicle, no metal, one day before read-out
- Measured: 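Total ATP measured by luciferase light, scaled to plate mean, duplicates averaged, then z-scored across plates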
- Scale: ATP z-score: higher = more total ATP than typical wells; ATP luminescence: higher = more total ATP
- Call rule: 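a hit is any knock-down whose absolute ATP z-score is greater than 1.5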
- Calls: active = hit: ATP up or down; inactive = no clear ATP change
The whole screen tested about 3,100 reagents; below is a part drawn at random. 378 of all reagents (12%) were called active. 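Hits include both directions; z-score sign shows ATP rise or fall; raw luminescence values are not plate-normalised.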 The numbers tell different reagents against one gene apart. A plus sign joins genes that one reagent is predicted to hit. Reagent sequences are not shown. Not stated in the record: the amount of reagent.

The opening 7 entries as a preview:
no.	predicted target	reagent	ATP z-score, duplicate mean	ATP luminescence, replicate 1 (RLU)	ATP luminescence, replicate 2 (RLU)	Call
1	shg	1	0.29	7.78e5	7.45e5	inactive
2	shg	2	-1.52	4.47e5	4.55e5	active
3	CG3702	1	0.22	4.61e5	5.30e5	inactive
4	CG3702	2	-1.71	3.97e5	4.84e5	active
5	MFS9	1	-0.152	6.95e5	6.85e5	inactive
6	CG14647	1	0.194	8.42e5	9.07e5	inactive
7	CG14647	2	-1.52	3.94e5	3.29e5	active

Results, from the first entry:
no.	predicted target	reagent	ATP z-score, duplicate mean	ATP luminescence, replicate 1 (RLU)	ATP luminescence, replicate 2 (RLU)	Call
1	shg	1	0.29	7.78e5	7.45e5	inactive
2	shg	2	-1.52	4.47e5	4.55e5	active
3	CG3702	1	0.22	4.61e5	5.30e5	inactive
4	CG3702	2	-1.71	3.97e5	4.84e5	active
5	MFS9	1	-0.152	6.95e5	6.85e5	inactive
6	CG14647	1	0.194	8.42e5	9.07e5	inactive
7	CG14647	2	-1.52	3.94e5	3.29e5	active
8	Tom20	1	0.433	7.57e5	7.99e5	inactive
9	Ser	1	-1.05	5.33e5	7.08e5	inactive
10	Ser	2	0.267	9.83e5	7.83e5	inactive
11	CG42260	1	-0.472	6.55e5	6.96e5	inactive
12	Or47a	1	-0.454	5.58e5	5.99e5	inactive
13	Ac3	1	1.11	8.97e5	8.01e5	inactive
14	Ac3	2	0.443	5.43e5	4.75e5	inactive
15	Oatp58Db	1	0.903	4.85e5	6.73e5	inactive
16	moody	1	1.08	7.56e5	7.73e5	inactive
17	ACXA	1	-0.24	8.51e5	7.90e5	inactive
18	ACXA	2	-0.773	3.58e5	4.70e5	inactive
19	Smvt	1	-1.69	5.08e5	8.96e5	active
20	Smvt	2	-0.0893	5.05e5	4.11e5	inactive
21	Inx3	1	0.676	7.47e5	8.03e5	inactive
22	Inx3	2	0.659	9.68e5	8.96e5	inactive
23	Zdhhc8	1	-1.03	5.36e5	7.47e5	inactive
24	Zdhhc8	2	-1.88	3.78e5	2.81e5	active
25	msk	1	0.708	8.25e5	7.88e5	inactive
26	msk	2	-0.812	7.74e5	7.24e5	inactive
27	Cad96Cb	1	1.25	3.07e5	1.02e6	inactive
28	Cad96Cb	2	0.814	9.02e5	7.55e5	inactive
29	Cad96Cb	3	0.281	9.37e5	7.83e5	inactive
30	l(1)1Bb + ebo	1	0.967	7.52e5	9.68e5	inactive
31	l(1)1Bb + ebo	2	0.79	5.37e5	5.31e5	inactive
32	Tsp86D	1	-0.663	2.82e5	6.57e5	inactive
33	Or1a	1	-0.768	5.71e5	6.64e5	inactive
34	Or1a	2	1.28	6.10e5	4.70e5	inactive
35	ppk9	1	0.192	7.74e5	7.20e5	inactive
36	ppk9	2	-0.299	8.79e5	8.36e5	inactive
37	Lcch3 + Ranbp16	1	0.859	5.65e5	7.61e5	inactive
38	Nup50	1	-0.343	7.22e5	6.66e5	inactive
39	Nup50	2	-0.699	9.46e5	1.11e6	inactive
40	Or94a	1	0.202	3.11e5	7.76e5	inactive
41	heix	1	2.48	6.96e5	6.05e5	active
42	heix	2	0.115	4.58e5	4.89e5	inactive
43	Or98a	1	-1.52	5.22e5	6.43e5	active
44	Or98a	2	-0.215	8.44e5	8.02e5	inactive
45	Or49a	1	0.151	7.11e5	5.55e5	inactive
46	Or49a	2	1.14	6.19e5	4.64e5	inactive
47	CG13654	1	-0.202	3.02e5	7.09e5	inactive
48	CG13654	2	-0.109	5.80e5	5.69e5	inactive
49	Osi14	1	0.0881	9.32e5	8.83e5	inactive
50	Osi14	2	0.319	7.84e5	9.62e5	inactive
51	Vamp7	1	-1.49	4.99e5	4.70e5	inactive
52	Dic4	1	-0.489	8.33e5	8.30e5	inactive
53	Mrp5	1	-0.246	2.82e5	7.51e5	inactive
54	Mrp5	2	0.768	7.87e5	8.67e5	inactive
55	Mrp5	3	-1.64	6.76e5	5.80e5	active
56	Tsp42Ei	1	-0.839	5.57e5	5.30e5	inactive
57	Tsp42Ei	2	-0.68	8.91e5	1.02e6	inactive
58	CG33958	1	-0.434	6.83e5	7.09e5	inactive
59	CG33958	2	0.182	6.88e5	5.84e5	inactive
60	CG33958	3	0.247	7.69e5	9.28e5	inactive
61	rdog	1	0.788	7.82e5	7.92e5	inactive
62	rdog	2	-0.408	9.55e5	1.09e6	inactive
63	Arv1	1	-0.721	6.95e5	6.69e5	inactive
64	PIG-C	1	-0.789	8.39e5	7.48e5	inactive
65	CG16904	1	0.36	7.62e5	7.24e5	inactive
66	CG16904	2	-0.541	7.56e5	7.59e5	inactive
67	Coq2	1	1.01	1.01e6	8.84e5	inactive
68	Coq2	2	2.16	6.32e5	5.62e5	active
